PubChem BioAssay AID1671195, Yale University – 2021

Purpose: 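Knockdowns that increase or decrease uptake of fluorescent LDL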 (primary screen)
System: human Huh7 hepatoma cells
Knock-down reagent: siRNA pool against human genes, 18 nM
Time to read-out: about 2 to 2.5 days of knockdown, then 8 h LDL uptake
Treatment: DiI-labelled LDL at 30 µg/ml for 8 h, in lipoprotein-deficient serum medium
Read-out: 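Per-cell DiI-LDL intensity by automated imaging; well means scaled to the plate median and given as a robust z-score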
Direction: robust z-score: higher = more LDL uptake after knockdown
Hit rule: 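Active when two or more replicates show a robust z-score above 2 or below -2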
Here is one part, drawn at random, of about 22,000 reagents. Over the whole deposit, about 1,510 (6.9%) were called active. 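Active includes knockdowns raising or lowering LDL uptake; positive z-scores mean more uptake, negative mean less.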

With OR5A2 (olfactory receptor family 5 subfamily A member 2), what does the deposit list?
robust z-score, replicate 1: -0.105; robust z-score, replicate 2: -0.64; robust z-score, replicate 3: 0.422; activity call: inactive

With NMRAL1 (NmrA like redox sensor 1), what was measured?
robust z-score, replicate 1: -1.2; robust z-score, replicate 2: -0.655; robust z-score, replicate 3: -0.49; activity call: inactive

With RDH5 (retinol dehydrogenase 5), what was measured?
robust z-score, replicate 1: -1.07; robust z-score, replicate 2: -0.523; robust z-score, replicate 3: -1.09; activity call: inactive

How did the screen score PRSS35 (serine protease 35)?
robust z-score, replicate 1: -0.109; robust z-score, replicate 2: -0.309; robust z-score, replicate 3: 0.193; activity call: inactive

With OR4N5 (olfactory receptor family 4 subfamily N member 5), how do the results read?
robust z-score, replicate 1: -0.584; robust z-score, replicate 2: -1.15; robust z-score, replicate 3: -1.01; activity call: inactive

With LOC441793 (retired record), how do the results read?
robust z-score, replicate 1: -0.395; robust z-score, replicate 2: -0.503; robust z-score, replicate 3: -0.835; activity call: inactive

With NLRP8 (NLR family pyrin domain containing 8), what does the deposit list?
robust z-score, replicate 1: 0.0568; robust z-score, replicate 2: -0.335; robust z-score, replicate 3: -0.555; activity call: inactive

For TRNP1 (TMF1 regulated nuclear protein 1), what does the deposit list?
robust z-score, replicate 1: 0.687; robust z-score, replicate 2: 0.595; robust z-score, replicate 3: 0.468; activity call: inactive

With TM4SF5 (transmembrane 4 L six family member 5), what was measured?
robust z-score, replicate 1: 0.227; robust z-score, replicate 2: 1.55; robust z-score, replicate 3: 0.7; activity call: inactive

With LOC388760 (retired record), how do the results read?
robust z-score, replicate 1: 1.79; robust z-score, replicate 2: 1.64; robust z-score, replicate 3: 1.67; activity call: inactive

For SLC16A6, how do the results read?
robust z-score, replicate 1: 0.446; robust z-score, replicate 2: 0.924; robust z-score, replicate 3: 0.734; activity call: inactive

What did the screen give for IGLL3P (immunoglobulin lambda like polypeptide 3, pseudogene)?
robust z-score, replicate 1: -1.04; robust z-score, replicate 2: -0.681; robust z-score, replicate 3: -0.238; activity call: inactive
